# Measured values published in the supplement of paper PMC5949888.
# Most values lie at the floor of the assay. Slopes are relative: functional sequences can read slightly below zero.
# Tested on: Saccharomyces cerevisiae PS128 hsf1 delta, HSF1(1-493) fusion
# Assay: growth estimate (transactivation domain function in HSF1 fusion, heat-shock survival) (a.u. (slope of normalised read count over time)); higher = stronger growth at 37°C, i.e. more transactivation activity
# Conditions: library: random library
row,Substance,growth estimate
1,YHGHGIDNGLCGSSEVSVLR,-0.25
2,LIVPPWAIMLHFFCPMGSE,< -0.25
3,RGIDLSTGAEREPMREALRF,< -0.25
4,SRIWWGSSPRGVFTTAPARV,< -0.25
5,RSKQAIAMSMCFP,< -0.25
6,RNRCWPGSSRY,< -0.25
7,RHHTGLCTCVFRHFRATGLT,< -0.25
8,GWEDLT,< -0.25
9,HGPRDMLKSVSE,< -0.25
10,HSYT,< -0.25
11,ALYAMCFCLRGGSVEGS,-0.235
12,TEHGIIIGRAALLSLPVT,< -0.25
13,LSASFWDSSDYNTGGVHTKD,< -0.25
14,HNLRNWKGIY,< -0.25
15,STYLM,< -0.25
16,SSNRAGNYQ,< -0.25
17,AMNCRVPFCEVTCTFWSISA,-0.243
18,YRSCSLSNEEGLVRRVSMHA,< -0.25
19,GATRRQGTCVKASTGALRTQ,< -0.25
20,FNTVTRIGVIRPVRNAPSSV,0.402
21,LYTRNQRVSDTCIKRLEFQC,< -0.25
22,IHTQASVISWGAARLGKLEV,< -0.25
23,RYWLFADFA,< -0.25
24,LVAKGHGVRATAGSTCPV,< -0.25

row,Substance,growth estimate
1,VCPPIRSSKRRSGMLWADTS,< -0.25
2,YGTGGNHGLGVTGAGPVS,< -0.25
3,EYA,< -0.25
4,ERPSTQ,< -0.25
5,RVHEALTYKLVREHSLSCLW,< -0.25
6,GEYHPNTYNSLREGFTHNIW,< -0.25
7,NPQHHCPLKAPWRELLTVQL,< -0.25
8,RISVQEMGFESVFGLTFFET,-0.0584
9,QRLRDLRALVVTDCR,< -0.25
10,FKQHQIVQEHKIREIRNSRV,< -0.25
11,APVRGLKDRSAVISYGASHV,< -0.25
12,LSTLLPYWLRVFC,-0.197
13,KSNPRHLSSSRNWYAIPF,< -0.25
14,PWPL,< -0.25
15,PGSTQTHLDPGLRIITPLLP,< -0.25
16,CNGIAGLTPPRTRGSLETS,< -0.25
17,VKSGGVSSLSVLSKKERCQV,< -0.25
18,WSVKVTALDERCWGTSSAT,< -0.25
19,LFCQRQRTPTVQF,< -0.25
20,GRGRTALS,< -0.25
21,AHSQAQRGRWSRTTNYKVSR,< -0.25
22,QSRACSNSQYGWAVRCQGQQ,< -0.25
23,TGILNVRRQYSKCPTYHLER,< -0.25
24,RKTGS,< -0.25

row,Substance,growth estimate
1,PEGRSYGIITGTPRLAPLGS,< -0.25
2,TYPQQIDSSTILTIILNEHR,< -0.25
3,SINQWCDAIAV,< -0.25
4,AETTADGDSQIPFLDLWFIP,< -0.25
5,MGSPEEALYKSVRHGGLFLP,< -0.25
6,ATCYEAYRVGRTAKLVGLHR,< -0.25
7,ELGSKRLRTISLVIFV,< -0.25
8,KVVLSHQRNKYYLPF,< -0.25
9,GSSFTAQSRLSYVAFAIHIR,< -0.25
10,WGRNEEKLRGVTGNKCRFGS,< -0.25
11,SVGLRKDRSGPLL,< -0.25
12,PHVEGVPLSSGLSTDL,< -0.25
13,FVEIVNSFKNA,< -0.25
14,PSVGLRRGWFGRWATFLKSS,< -0.25
15,DEAALRPFEKYLRLRFKDNP,< -0.25
16,QVVDS,< -0.25
17,DQRPV,< -0.25
18,VSGV,< -0.25
19,GVDARVRVQGRGLAVLCQRL,< -0.25
20,STSVYSSGSCVVRCILSHGI,< -0.25
21,PKLGGTSVGSWKHFSSEFRQ,< -0.25
22,IWRGDIVKKVTSIRG,< -0.25
23,AVLSKTIGGGRPVHWWAGIT,< -0.25
24,IVLR,< -0.25

# A different layout for some results above.
row	Substance	growth estimate
21	PKLGGTSVGSWKHFSSEFRQ	< -0.25
22	IWRGDIVKKVTSIRG	< -0.25
23	AVLSKTIGGGRPVHWWAGIT	< -0.25

# Reformatted: results already given.
row	Substance	growth estimate
3	RGIDLSTGAEREPMREALRF	< -0.25
8	GWEDLT	< -0.25
22	IHTQASVISWGAARLGKLEV	< -0.25
11	APVRGLKDRSAVISYGASHV	< -0.25
10	WGRNEEKLRGVTGNKCRFGS	< -0.25

# Next part.

row,Substance,growth estimate
1,YWCSSLEGVPDT,< -0.25
2,GQMSDL,< -0.25
3,VWSAYRQGLRVNRAYGVLQR,< -0.25
4,PKFVGKG,< -0.25
5,NSRGRLCCGQSTRRPRALPC,< -0.25
6,RFSRLTTQSVGRRDQEHLLL,< -0.25
7,RRAGGGMAPGIPVDKSRN,-0.243
8,SNLAS,< -0.25
9,DPYIWRADRGCDHEDHFRFN,< -0.25
10,RSSCWNSIVWHRI,< -0.25
11,NKADAGHVWMGGSRPSHFFF,< -0.25
12,FPVARIMPITHPCSILAMRV,< -0.25
13,RFYS,< -0.25
14,PGGS,< -0.25
15,TSRRFENRLLPLRISKLGRP,< -0.25
16,ESVND,< -0.25
17,QSGDYGYWLTDVGRNHHLKT,< -0.25
18,LEWGANMAHAVLDLVDVNHY,< -0.25
19,VTSYEMVV,< -0.25
20,SQCNGKLSAISARRCLQRYR,< -0.25
21,IIPGASTPCGPSDNFPRIVR,< -0.25
22,CYNA,-0.243
23,MTVL,< -0.25
24,TAVPSSSRARCVS,< -0.25

row,Substance,growth estimate
1,RSDRCCMTALVSPQFSRRLL,< -0.25
2,PSHAVSSAQLSTRRDGRACR,< -0.25
3,GRRQEL,< -0.25
4,VWGNGPRDAVQQEIGTITPL,< -0.25
5,KPY,< -0.25
6,INVSCG,< -0.25
7,SKRTCL,< -0.25
8,GKYRRKCLIWGWAVAQRKSV,< -0.25
9,LQLQSAPRQKHTVTARRGTT,< -0.25
10,AVWYRYSGNSLREHLVNSEV,< -0.25
11,QGWSRQCSVSLKRRGHSIVS,< -0.25
12,VNVK,< -0.25
13,TCTAVPVCL,< -0.25
14,RVCWKA,< -0.25
15,PTPCG,-0.245
16,KGYEVDTTKETGWLRDASAG,< -0.25
17,GAVAREPFD,< -0.25
18,LFVRGNAVTPDRADRMPAVA,< -0.25
19,LDHLFV,< -0.25
20,LSRCQIGGSLSGDLRVRHRH,< -0.25
21,IKLSFGRREYAYGDPDLLLP,< -0.25
22,CPSELRIVANEPTTGVGSIA,< -0.25
23,IVNAWGVLWRGRTRQAV,< -0.25
24,VYIPLTPYITEPLRRKSITA,< -0.25

row,Substance,growth estimate
1,NPWSLCQKID,< -0.25
2,EITC,< -0.25
3,LGCRETVPAQTRTLASPVTE,< -0.25
4,CGR,< -0.25
5,DNTNVDYCTEEG,-0.245
6,LTSASQEHATSIVLPKDRG,< -0.25
7,LLIIRGLDQPGPACKFCLST,< -0.25
8,MTGMVVRTVYISCSGHHRYS,< -0.25
9,YANDVRR,< -0.25
10,STVQEFIESAVLGVRFGYT,< -0.25
11,GRGQATGFVTKSPPSYERMS,< -0.25
12,MHHSVP,< -0.25
13,NGPLIGLGEDLRSPDHSLIE,< -0.25
14,GIFRAGMLQ,< -0.25
15,YDQDSFATLQIMPSYGIYPK,-0.111
16,FRSKSPQN,< -0.25
17,LIVLGLRLARRMTQTANASR,< -0.25
18,CVGNSWGLLTRHFRETGRAQ,< -0.25
19,TSEGFHAFVHCRNARTENAD,< -0.25
20,SNTLVFKRYVS,< -0.25
21,FQVMKFIHFLSYVVSTQMYR,< -0.25
22,SASLIKVAHDAGSQRSLTIA,< -0.25
23,SSTSKYSVIFGKSALSTDGQ,< -0.25
